Some peptides are written in HELM: one residue between dots, names in brackets for other building blocks, links after the first $.

A short description of the data set: general procedure: Boc solid-phase peptide synthesis; BHA-resin; Gly-OCH2-phi-resin; DCC with HOBT; DCC/DMAP for the position 1 acid. The following applies: whole synthesis, scale 0.83 mmol.

“PEPTIDE1{[MprEt].[D-TyrEt].F.V.N.C.P.R.G.[am]}$PEPTIDE1,PEPTIDE1,1:R3-6:R3$$$V2.0” gave a crude mass of 580 mg.

(Values after patent publication US4749782A (Smithkline Beckman Corporation, priority 1986, dated 1988).)
